Measured values as given in patent US5656449A, “Neutral unsymmetrical cyanine dyes” (Molecular Probes, Inc., priority 1995, dated 1997).
Structures can show the parent of a compound that is named as a salt.

System: doublestranded cal thymus DNA
Experiment: Spectral characteristics of dyes bound to double-stranded DNA (Table 1)
Set-up: species or system calf
Conditions: for Quantum Yield (DNA): bound to doublestranded calf thymus DNA; for Emission (DNA complex): fluorescence emission maximum on doublestranded DNA; for Excitation (DNA complex): fluorescence excitation maximum on doublestranded DNA

| Structure (SMILES) | Quantum Yield (DNA) | Emission (DNA complex) | Excitation (DNA complex) |
| --- | --- | --- | --- |
| CCN1C(=Cc2cc(Sc3ccccc3)nc3ccccc23)Sc2ccccc21 [Dye 509] | 0.05 | 530 nm | 508 nm |
| CCN(CC)c1cc(C=C2Sc3ccccc3N2CC)c2ccccc2n1 [Dye 510] | 0.71 | 500 nm | 461 nm |
| Cc1cc(C=C2Sc3ccccc3N2C)nc2ccccc12 [Dye 523-1] | 0.25 | 521 nm | 462 nm |
| Cc1cc(C=C2Sc3ccccc3N2C)c2ccccc2n1 [Dye 523-2] | 0.19 | 517 nm | 493 nm |
| CN1C(=Cc2ccnc3ccccc23)Sc2ccccc21 [Dye 798, 4-(2,3-dihydro-3-methyl-(benzo-1,3-thiazol-2-yl)-methylidine)-quinolinium tosylate] | 0.09 | 521 nm | 491 nm |
| CN1C(=Cc2ccnc3ccccc23)Oc2ccccc21 [Dye 799] | 0.27 | 493 nm | 465 nm |
| CCN1C(=Cc2ccnc3ccccc23)Sc2ccccc21 [Dye 1266] | 0.07 | 524 nm | 490 nm |
| COc1ccc2nc(C=C3Sc4ccccc4N3C)ccc2c1 [Dye 1267] | 0.07 | 543 nm | 475 nm |
| CCCCc1cc(C=C2Sc3ccccc3N2CC)c2ccccc2n1 [Dye 1268] | 0.25 | 517 nm | 492 nm |
| CCN1C(=Cc2cc(-c3ccccc3)nc3ccccc23)Sc2ccccc21 [Dye 4100] | 0.08 | 553 nm | 512 nm |
| CN1C(=Cc2ccc3ccccc3n2)Sc2ccccc21 [Dye 7100] | 0.11 | 533 nm | 470 nm |
| CN1C(=Cc2ccncc2)Sc2ccccc21 [Dye 7101] | 0.12 | 475 nm | 444 nm |
| CN1C(=Cc2cc[n+](C)c3ccccc23)Oc2ccccc21 [Oxazole Yellow, reference compound] | 0.31 | 504 nm | 483 nm |
| CN1C(=Cc2cc[n+](C)c3ccccc23)Sc2ccccc21 [Thiazole Orange, reference compound] | 0.18 | 530 nm | 510 nm |
